Measured values reported in PubChem BioAssay AID595 (National Center for Advancing Translational Sciences (NCATS), 2007).
Values joined by “and” are separate entries in the source; they are usually repeats but may differ in a detail not shown here. Equal values may be shown once. In all, about 71,000 compounds went through this assay and about 310 (0.44%) were called active. Inconclusive results, whose numbers are uncertain, are shown with a selection of clear calls. Calls come from the whole dose curve; as a rule, active = well fitted curve in either direction with a large enough effect; inconclusive = small, poorly fitted or top-dose-only effect, or another doubt; inactive = flat fitted curve, though single readings scatter. Potencies beside an inconclusive call are fits to weak or partial responses and may not hold up.

These compounds were tested on Hsp90 C-terminal peptide / TPR2A (Hop) interaction, human (assay: qHTS Assay for Disrupters of an Hsp90 Co-Chaperone Interaction). Settings: AlphaScreen TPR2A-His6 binding biotin-Hsp90 C-terminal peptide; activity change, negative = inhibition: at 57 µM (top of the series) unless noted.
% is set by controls: 0 for no effect and ±100 for the full control effect; potency is the fitted concentration of half-maximal effect.

Row | SMILES | Potency | activity change, negative = inhibition
1 | Cc1ccc(-c2nc(COC(=O)c3c(C)noc3C)cs2)cc1 | inconclusive: 20 µM [activator, single point] | –
2 | COC(=O)[C@@]1(Cc2ccc(OC)cc2)[C@H]2c3cc(C(=O)N(C)C)n(CCO)c3C[C@H]2CN1C(=O)c1ccccc1 | – | inactive: -3.41%
3 | Cc1ccc(S(=O)(=O)N2CCN(c3nc4ccccc4nc3-n3nc(C)cc3C)CC2)cc1 | inconclusive: 15.8 µM [activator, partial curve] | –
4 | O=C(O)c1c[nH]c2ccc(S(=O)(=O)N3CCN(c4ccc(F)cc4)CC3)cc2c1=O | inconclusive: 25.1 µM [inhibitor, single point] | –
5 | COc1ccc(NC(=O)c2ccc3c(c2)n(C)c(=O)n3C)cc1 | – | inactive: 0.394%
6 | CCOC(=O)CSc1nnc(-c2ccc(Cl)cc2Cl)o1 | – | inactive: 8.12%
7 | Cc1ccc(-c2csc(=S)n2CC(=O)OCC(=O)NCc2ccco2)cc1 | – | inconclusive: 25.7%
8 | CCOc1ccc2[nH]c(=O)c(CN(CCO)C(=O)CC)cc2c1 | – | inconclusive: 37.5%
9 | CS(=O)(=O)N1CCC2(CCCN(C(=O)Nc3cccc(F)c3)C2)CC1 | – | inactive: 4.26%
10 | O=C(O)c1ccc(-n2cccc2)cc1O | – | inconclusive: 36.8%
11 | CCC(C)(C)n1nnnc1CN(Cc1cccs1)Cc1cc2cc(OC)ccc2[nH]c1=O | – | inactive: -2.5%
12 | Cc1cc(NC(=O)C(C)C)ncc1NC(=O)CCc1ccccc1 | – | inconclusive: 49.6%
13 | CC(C)(CNC(=O)c1cccs1)CNC(=O)c1cccs1 | – | inactive: 0.327%
14 | Cc1cc(C)nc(NS(=O)(=O)c2cccs2)c1 | – | inconclusive: 50.2%
15 | O=C(Nc1cc(C(=O)Nc2ccc(S(=O)(=O)O)cc2S(=O)(=O)O)cc(C(=O)Nc2ccc(S(=O)(=O)O)cc2S(=O)(=O)O)c1)Nc1cc(C(=O)Nc2ccc(S(=O)(=O)O)cc2S(=O)(=O)O)cc(C(=O)Nc2ccc(S(=O)(=O)O)cc2S(=O)(=O)O)c1 | inactive and inconclusive: 39.8 µM [inhibitor, single point] | –
16 | CCN(CC)S(=O)(=O)c1cc(-c2nnc(-c3ccc(Br)cc3)o2)ccc1Cl | – | inconclusive: 96.4%
17 | O=C(Nc1ccc(Nc2ccc3c(c2)C(=O)c2ccccc2C3=O)c2c1C(=O)c1ccccc1C2=O)c1ccccc1 | inconclusive: 3.98 µM [inhibitor, single point] | –
18 | COc1ccc(OC)c2[nH]c(=O)c(CCNC(=O)COc3ccccc3)cc12 | – | inconclusive: 36.9%
19 | CN1c2ccccc2C(C)(C)C12C=Cc1cc(O)ccc1O2 (stereo not drawn) | inconclusive: 31.6 µM [inhibitor, single point] | –
20 | Nc1nnc(N2CCc3ccccc32)s1 | – | inactive: 8.3% [at 2.3 µM]
21 | Clc1ccccc1OCCn1ccnc1 | – | inconclusive: 23.9%

Row | SMILES | Potency | activity change, negative = inhibition
22 | CCc1cc2c(SCC(=O)c3cccs3)ncnc2s1 | inconclusive: 25.1 µM [activator, single point] | –
23 | CCOC(=O)c1sc(=S)n(-c2cc(F)ccc2F)c1N | – | inactive: -8.77%
24 | CCNc1c(N)c(=O)oc2ccccc12 | – | inconclusive: 51.9%
25 | Cc1cc(NC(=O)CCCC(=O)Nc2ccc(F)cc2)no1 | – | inactive: 0.216%
26 | Cc1cccc(-c2noc(CN(C)S(=O)(=O)c3cc(Cl)ccc3Cl)n2)c1 | inconclusive: 25.1 µM [activator, single point] | –
27 | CCCC/C=C/C(NC(=O)c1ccccc1)c1ccccc1 (stereo not drawn) | inconclusive: 25.1 µM [activator, single point] | –
28 | CCOc1cc(C2C(C#N)=C(N)Oc3n[nH]c(-c4ccccc4)c32)ccc1O (stereo not drawn) | – | inconclusive: 24.4%
29 | O=C(Nc1ccccc1N1CCCCC1)c1cccs1 | – | inactive: 20.9%
30 | CCSc1nc2c(c(=O)[nH]1)C(c1cccnc1)C(C(=O)OC)=C(C)N2 (stereo not drawn) | – | inconclusive: 42.2%
31 | CCOc1ccccc1C(=O)NC(C(=O)OCC(=O)Nc1nnc(-c2ccccc2)o1)C(C)C (stereo not drawn) | inconclusive: 39.8 µM [inhibitor, single point] | –
32 | CCCS(=O)(=O)N1CCN(Cc2ccncc2)CC1 | – | inconclusive: 42.9%
33 | COc1ccc(CN2CCN(c3cccc(C)c3C)CC2)cc1OC | – | inconclusive: 37.9%
34 | CCCOc1ccc(C(=O)OCCN(CC)CC)cc1N | – | inconclusive: 51.2% [at 26 µM]
35 | O=C(Nc1ccc(Nc2ccccc2)cc1)C1CC1 | – | inconclusive: 13%
36 | O=C(NCC1CC1)[C@@H]1C[C@H]1[C@@H](NP(=O)(c1ccccc1)c1ccccc1)c1ccccc1 | – | inactive: -8.64%
37 | Cc1cccc2cc(C#N)c(N3CCCC3)nc12 | active: 31.6 µM [activator] | –
38 | O=C1CS/C(=N\C(=O)N2c3ccccc3Sc3ccccc32)N1 | – | inactive: -12.8% [at 11 µM]
39 | Cc1ccc(-n2c(SCc3ccc(C#N)cc3)nnc2-c2ccccn2)cc1 | inconclusive: 31.6 µM [inhibitor, single point] | –
40 | O=C(OCCN1C(=O)c2ccccc2C1=O)c1cc(S(=O)(=O)N2CCOCC2)ccc1F | – | inconclusive: 42.6%
41 | FC(F)(F)c1cc(-c2ccccc2)nc(N2CCCCCC2)n1 | inconclusive: 31.6 µM [activator, single point] | –
42 | Cc1ccc(C)c(-n2c(SCC(=O)N3CCCC3)nnc2-c2ccccn2)c1 | – | inconclusive: -63.4%

Row | SMILES | Potency | activity change, negative = inhibition
43 | O=c1oc2ccccc2n1Cn1c(=O)oc2ccccc21 | – | inconclusive: 50.2%
44 | CS(=O)(=O)N1CCC[C@@]2(CCN(c3ncccn3)C2)C1 | – | inactive: 0.428%
45 | COc1ccc(-c2cc(C(F)(F)F)n3ncc(C(=O)NCC4CCCO4)c3n2)cc1 (stereo not drawn) | – | inconclusive: 51.1%
46 | Cc1c2ccccc2c(C)c2c1ccc1ccccc12 | active: 31.6 µM [activator] | –
47 | Clc1ccc(-c2nc(-c3ccccn3)no2)cc1Cl | – | inactive: -4.85% [at 11 µM]
48 | CC(C)Nc1nc(C#N)nc(NC(C)C)n1 | inconclusive: 31.6 µM [inhibitor, single point] | –
49 | CCOC(=O)C1CCN(C(=O)COc2cccc(C)c2)CC1 | – | inconclusive: 45.1%
50 | Cc1ccc(S(=O)(=O)Nn2c(C)ccc2C)cc1 | – | inactive: -9.05%
51 | O=C(c1cccc(F)c1)N1CCC[C@@]2(CCN(c3ccccc3)C2)C1 | – | inconclusive: 57.9%
52 | COc1ccc(C(=O)NCc2c(CC(C)C)oc(C)c2C(=O)O)cc1 | – | inconclusive: 35.4%
53 | N#Cc1cccc(NC(=O)N2CC[C@@]3(CCCN(C(=O)c4cnccn4)C3)C2)c1 | – | inconclusive: 52.1%
54 | CC(CN1CCCCC1)OC(=O)c1cc2ccccc2o1 (stereo not drawn) | – | inconclusive: 36.3%
55 | Cn1cc(/C=N/n2cnc3scc(-c4ccc(Cl)cc4)c3c2=O)c2ccccc21 | – | inactive: -6.61%
56 | Cc1cc(SCNC(=O)c2ccccc2)ncn1 | – | inconclusive: 46.4%
57 | Cc1oc2nc(SCC(=O)NC3CCCCC3)nc(N)c2c1C | – | inactive: -9.05%
58 | Cc1cc(Oc2ccccc2)nc(SCC(N)=O)n1 | – | inconclusive: 42.2%
59 | COc1ccc(-c2nnc(SCC(=O)N(Cc3ccccc3)C(C)(C)C)o2)cc1OC | – | inactive: -8.46%
60 | COc1cc(NCC[C@@H]2CCCCN2)c2ncccc2c1 | – | inactive: -8.26% [at 11 µM]
61 | Cc1nc2c(-c3ccccc3)c(C)nn2c(C)c1CC(=O)O | – | inactive: -2.63%
62 | Cc1cc2c(C(C)C)c(O)c(O)c(C=O)c2c(O)c1-c1c(C)cc2c(C(C)C)c(O)c(O)c(C=O)c2c1O | inconclusive: 31.6 µM [inhibitor, partial curve] | –
63 | CC(C)c1ccc2oc(-c3ccc(NC(=O)c4ncn[nH]4)cc3)nc2c1 | inconclusive: 20 µM [inhibitor, partial curve] | –

Some of the entries so far, as comma-separated lines.
Row,SMILES,Potency,"activity change, negative = inhibition"
55,Cn1cc(/C=N/n2cnc3scc(-c4ccc(Cl)cc4)c3c2=O)c2ccccc21,–,inactive: -6.61%
56,Cc1cc(SCNC(=O)c2ccccc2)ncn1,–,inconclusive: 46.4%
57,Cc1oc2nc(SCC(=O)NC3CCCCC3)nc(N)c2c1C,–,inactive: -9.05%
58,Cc1cc(Oc2ccccc2)nc(SCC(N)=O)n1,–,inconclusive: 42.2%
59,COc1ccc(-c2nnc(SCC(=O)N(Cc3ccccc3)C(C)(C)C)o2)cc1OC,–,inactive: -8.46%

Additional results follow:

Row | SMILES | Potency | activity change, negative = inhibition
64 | CCOc1ccc(C(=O)N2CCN(Cc3ccccc3)CC2)cc1 | – | inconclusive: 39.8%
65 | C=C1c2cccc(O)c2C(O)=C2C(=O)[C@@]3(O)C(O)=C(C(N)=O)C(=O)[C@@H](N(C)C)[C@@H]3[C@@H](O)[C@H]12 | inconclusive: 15.8 µM [inhibitor, partial curve] | –
66 | COC(=O)CNC(=O)COC(=O)C(Cc1ccccc1)NC(=O)c1ccco1 (stereo not drawn) | – | inconclusive: 31.6%
67 | Cc1cc(N2CCN(C)CC2)nc2ccc(NC(=O)CCC(=O)NCCC3=CCCCC3)cc12 | – | inactive: -0.45%
68 | CCOC(=O)c1ccccc1NS(=O)(=O)c1ccccc1F | inconclusive: 31.6 µM [activator, single point] | –
69 | COC(=O)c1ccccc1NC(=O)NCc1ccco1 | – | inconclusive: 49.6%
70 | N#C/C(=C\c1ccc(O)c(O)c1)C(=O)NCc1ccccc1 | inconclusive: 15.8 µM [inhibitor, partial curve] | –
71 | CCCN[C@@H](C)C(=O)Nc1ccccc1C | – | inactive
72 | O=C1c2ccccc2C(=O)N1CCSc1nnc(-c2ccco2)n1Cc1ccccc1 | – | inconclusive: 16.9%
73 | O=C(CCCN1C(=O)CCC1=O)Nc1ccc2c(c1)OCO2 | – | inconclusive: 34.2%
74 | CCn1c(SCCOc2ccc(Cl)cc2)nnc1-c1cccs1 | – | inactive: 11%
75 | CC(C)=CC(=O)Nc1ccc2c(c1)OCO2 | – | inactive: -3.28%
76 | Cc1cccc(N2CC34C=CC(O3)C(C(=O)O)C4C2=O)c1 (stereo not drawn) | – | inconclusive: 46.4%
77 | COc1ccc(-n2c(O)c(/C=N/n3cnnc3)c3ccccc3c2=O)cc1 | inconclusive: 39.8 µM [inhibitor, single point] | –
78 | COc1ccc(CCNC(=O)c2cc(-c3ccccc3OC)on2)cc1OC | – | inconclusive: 41.9%
79 | CCc1ccccc1NC(=O)c1cc2sccc2n1C | – | inconclusive: 50.2%
80 | COc1ccc(C(c2nnnn2C2CCCC2)N2CCC(C)CC2)cc1 (stereo not drawn) | – | inactive: 11.4%
81 | CCOc1ccccc1N1Cc2cc(C)c(C)cc2C1 | – | inconclusive: -1.96%
82 | Cc1conc1NC(c1cccs1)c1ccc2cccnc2c1O (stereo not drawn) | active: 25.1 µM | –
83 | CC1(C(=O)O)C=CCN1C(=O)c1ccccc1 (stereo not drawn) | – | inactive: 2.58%
